US20250326772A1, “MRGPRX2 ANTAGONISTS, PHARMACEUTICAL COMPOSITION INCLUDING MRGPRX2 ANTAGONIST, AND METHOD OF TREATING MRGPRX2-MEDIATED DISEASE OR DISORDER” (KYORIN PHARMACEUTICAL CO., LTD., priority 2024, published 2025)

The chains behind the UniProt entries cited, without tags or fusion partners.
UniProt Q96LB1, whole entry: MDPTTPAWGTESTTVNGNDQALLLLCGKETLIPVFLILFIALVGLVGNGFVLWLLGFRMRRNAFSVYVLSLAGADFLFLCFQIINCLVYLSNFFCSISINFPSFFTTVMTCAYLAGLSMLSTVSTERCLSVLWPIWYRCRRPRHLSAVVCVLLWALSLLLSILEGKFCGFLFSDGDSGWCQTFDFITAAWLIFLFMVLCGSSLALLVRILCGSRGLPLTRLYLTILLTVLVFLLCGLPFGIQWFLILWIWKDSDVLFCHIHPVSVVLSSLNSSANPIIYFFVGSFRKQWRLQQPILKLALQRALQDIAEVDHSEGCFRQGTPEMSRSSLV

Target: MRGPRX2 (Homo sapiens, UniProt Q96LB1)
Assay: MRGPRX2 reporter cell assay (NFAT-RE luciferase, Substance P stimulation)
Assay type: cell-based
Conditions: U2OS cells stably transfected with MRGPRX2 and NFAT-RE luciferase reporter; Substance P at EC80; class symbols
Experimental: MRGPRX2 Reporter Cell Assays U2OS cells (ATCC, Manassas, VA) were stably transfected with MRGPRX2 expression clones (GeneCopoeia, Rockville, MD) and the pGL4.30 [luc2P/NFAT-RE/Hygro] reporter plasmid (Promega, Madison, WI). Clonal cells were maintained in Growth Media (McCoy's 5A, 10% FBS, 495 μg/ml hygromycin, 2 μg/ml puromycin, 100 units/ml penicillin, and 100 ug/ml streptomycin). The day before assay, cells were plated to white 384-well microplates at 3000 (MRGPRX2) cells/well in 10 ul Assay Media (McCoy's 5A, 2% charcoal dextran stripped FBS, 100 units/ml penicillin, and 100 ug/ml streptomycin) (Gibco, Thermo Fisher) and allowed to adhere overnight. The following day, serially diluted compound stocks were added directly to the cells (final DMSO concentration of 0.5%) and pre-incubated for 30 minutes at 37° C., 5% CO2. The final concentration of Substance P (Tocris, Minneapolis, MN, or PEPTIDE INSTITUTE, Osaka, Japan) corresponding to EC80 was added to stimulate the (MRGPRX2) cells. Cells were returned to the incubator for 6 hrs, after which 5 ul of ONE-GLO substrate (Promega) was added. Luminescence was read within 15 minutes (BioTek, Winooski, VT or infinite M1000Pro, Tecan Japan, Kanagawa, Japan). Percent inhibition for each test compound was calculated using the formula: […] where: • A=the luminescence count of the “test compound” well • B=the median luminescence count of the “Vehicle (0.5% DMSO)” wells • C═the median luminescence count of the “Vehicle (0.5% DMSO)+5 uM of substance P” wells The mean percent inhibition of each concentration of “test compound” was used to generate dose-response curves. IC50 values were calculated using a four-parameter logistic fit to the data using GraphPad Prism software. • +++: […]

`COc1ccc(F)cc1-c1[nH]c2ncccc2c1-c1cccc2[nH]cnc12` and `COc1ccc(F)cc1-c1[nH]c2ncccc2c1C1=CCCC1` fall in the same range of IC50: 100 to 1000 nM for the first, 100 to 1000 nM for the second.

First: FC(F)c1ncsc1-c1c(-c2c(C(F)F)nn3c2OCCC3)[nH]c2ncccc12
Second: COc1ncc(F)cc1-c1c(-c2c(C(F)F)nn3c2OC[C@@H](F)C3)[nH]c2ncccc12
The IC50 of the first is higher: 10 to 100 nM for the first, less than 10 nM for the second.

`Cn1cc(-c2[nH]c3ncccc3c2-c2cscc2C#N)c(C(F)F)n1` and `Cn1cc(-c2c(-c3c(C(F)F)nn4c3OC[C@@H](NC(=O)C3(C#N)CC3)C4)[nH]c3ncccc23)c(OC(F)F)n1` cannot be ordered by IC50: less than 10 nM for the first, less than 10 nM for the second.

With `COc1ccc(F)cc1-c1[nH]c2ncccc2c1C1=CC(C)(C)CCC1=O` the IC50 was 100 to 1000 nM.

The structures given here were assigned with low confidence; some may be wrong.
